No constants are given. Whether binding was seen depends on the method and setting. Some binding calls cover weakened binding; strength is not graded here. Where a sequence is shown, tags or fusion partners need not be part of it.
Legend:
[1] = target: T1, EphB2 ligand binding domain construct ss.EphB2LBD.gD.GPI (amino acids 19 to 208 of human EphB2) on transiently transfected 293 cells (human) (UniProt P29323); experiment: FACS on ss.EphB2LBD.gD.GPI-293 cells
T1 sequence (chain, COOH-terminal GPI linker): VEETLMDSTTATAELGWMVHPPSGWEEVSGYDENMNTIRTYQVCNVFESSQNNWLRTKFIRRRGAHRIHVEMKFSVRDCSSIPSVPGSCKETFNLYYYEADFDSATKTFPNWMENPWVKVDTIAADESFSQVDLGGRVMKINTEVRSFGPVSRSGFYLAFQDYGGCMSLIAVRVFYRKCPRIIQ

[2] = target: T1, EphB2 ligand binding domain construct ss.EphB2LBD.gD.GPI (amino acids 19 to 208 of human EphB2) on transiently transfected 293 cells (human); experiment: FACS on ss.EphB2LBD.gD.GPI-293 cells, FITC anti-human IgG Fc detection
[3] = target: NH2-terminal GD epitope-tagged human EphB2 overexpressed on cells (HT1080-EphB2, SVT2-EphB2) (human) (UniProt P29323); experiment: flow cytometry on HT1080 cells overexpressing EphB2, detection with FITC-conjugated anti-human Fc

binding [1]: binds
binding [2]: binds
binding [3]: binds
B1: ephrin-B1-Fc fusion protein (Fc fusion, human, UniProt P98172 28-237, looked up, not shown: a dimerising Fc or GST)
chain: LAKNLEPVSWSSLNPKFLSGKGLVIYPKIGDKLDIICPRAEAGRPYEYYKLYLVRPEQAAACSTVLDPNVLVTCNRPEQEIRFTIKFQEFSPNYMGLEFKKHHDYYITSTSNGSLEGLENREGGVCRTRTMKIIMKVGQDPNAVTPEQLTTSRPSKEADNTVKMATQAPGSRGSLGDSDGKHETVNQEEKSGPGASGGSSGDPDGFFNSK
